The supplement of paper PMC10849652
The list shows a part of the results.

Amino acid sequences for entries named in this document (tags omitted). A change or cut given only in a name is not applied to a line headed by its entry.
UniProt Q8TCG2: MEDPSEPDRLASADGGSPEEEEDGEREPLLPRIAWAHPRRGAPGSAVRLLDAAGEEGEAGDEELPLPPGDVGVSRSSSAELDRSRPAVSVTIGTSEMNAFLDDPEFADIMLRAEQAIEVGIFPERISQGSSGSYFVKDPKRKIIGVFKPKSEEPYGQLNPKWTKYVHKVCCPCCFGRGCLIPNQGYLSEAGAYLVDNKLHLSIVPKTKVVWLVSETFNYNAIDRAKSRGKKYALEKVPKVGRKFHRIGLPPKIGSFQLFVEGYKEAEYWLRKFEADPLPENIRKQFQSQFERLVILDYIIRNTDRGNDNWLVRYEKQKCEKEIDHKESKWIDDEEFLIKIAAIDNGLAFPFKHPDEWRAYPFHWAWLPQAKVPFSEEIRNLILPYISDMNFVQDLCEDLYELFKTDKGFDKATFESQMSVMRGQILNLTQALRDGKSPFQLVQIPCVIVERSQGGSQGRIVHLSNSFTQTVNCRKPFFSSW
PIGBOS1, A0A0B4J2F0, UniProt A0A0B4J2F0, whole entry, looked up: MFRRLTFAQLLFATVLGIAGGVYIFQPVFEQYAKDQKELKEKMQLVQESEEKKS
UniProt P07205: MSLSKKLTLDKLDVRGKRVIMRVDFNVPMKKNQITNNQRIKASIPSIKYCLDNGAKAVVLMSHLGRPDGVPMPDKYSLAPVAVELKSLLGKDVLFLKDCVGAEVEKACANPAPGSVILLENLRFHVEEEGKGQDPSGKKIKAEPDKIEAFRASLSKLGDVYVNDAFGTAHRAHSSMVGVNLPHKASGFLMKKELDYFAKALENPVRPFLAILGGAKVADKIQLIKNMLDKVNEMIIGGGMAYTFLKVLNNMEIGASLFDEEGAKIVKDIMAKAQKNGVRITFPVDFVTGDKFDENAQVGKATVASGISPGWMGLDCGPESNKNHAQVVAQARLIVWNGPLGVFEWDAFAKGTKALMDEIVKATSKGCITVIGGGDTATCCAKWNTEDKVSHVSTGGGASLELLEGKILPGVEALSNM
UniProt O94880: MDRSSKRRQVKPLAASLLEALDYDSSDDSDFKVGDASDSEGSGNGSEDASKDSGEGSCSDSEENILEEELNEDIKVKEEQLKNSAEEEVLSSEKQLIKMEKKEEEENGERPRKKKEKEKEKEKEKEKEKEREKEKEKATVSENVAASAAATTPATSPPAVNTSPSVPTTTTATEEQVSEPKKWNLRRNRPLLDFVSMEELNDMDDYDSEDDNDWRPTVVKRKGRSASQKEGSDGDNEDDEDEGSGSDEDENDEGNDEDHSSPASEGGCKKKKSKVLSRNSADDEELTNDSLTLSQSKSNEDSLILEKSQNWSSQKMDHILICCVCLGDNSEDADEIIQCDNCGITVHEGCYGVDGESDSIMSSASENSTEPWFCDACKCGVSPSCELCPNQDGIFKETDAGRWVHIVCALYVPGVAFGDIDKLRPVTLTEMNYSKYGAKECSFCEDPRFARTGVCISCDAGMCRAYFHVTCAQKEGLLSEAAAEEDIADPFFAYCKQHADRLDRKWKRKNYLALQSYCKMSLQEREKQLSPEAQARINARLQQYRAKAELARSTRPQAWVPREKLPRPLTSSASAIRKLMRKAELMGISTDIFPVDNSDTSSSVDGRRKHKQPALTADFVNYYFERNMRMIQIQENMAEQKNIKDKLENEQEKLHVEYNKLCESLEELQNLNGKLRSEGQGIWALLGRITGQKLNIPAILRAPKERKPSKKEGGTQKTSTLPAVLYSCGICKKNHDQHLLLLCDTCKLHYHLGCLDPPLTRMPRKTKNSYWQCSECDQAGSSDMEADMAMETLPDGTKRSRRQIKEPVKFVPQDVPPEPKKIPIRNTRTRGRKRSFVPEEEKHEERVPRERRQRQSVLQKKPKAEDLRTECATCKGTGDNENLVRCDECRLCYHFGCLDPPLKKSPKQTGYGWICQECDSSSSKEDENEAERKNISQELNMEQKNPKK
UniProt O00443: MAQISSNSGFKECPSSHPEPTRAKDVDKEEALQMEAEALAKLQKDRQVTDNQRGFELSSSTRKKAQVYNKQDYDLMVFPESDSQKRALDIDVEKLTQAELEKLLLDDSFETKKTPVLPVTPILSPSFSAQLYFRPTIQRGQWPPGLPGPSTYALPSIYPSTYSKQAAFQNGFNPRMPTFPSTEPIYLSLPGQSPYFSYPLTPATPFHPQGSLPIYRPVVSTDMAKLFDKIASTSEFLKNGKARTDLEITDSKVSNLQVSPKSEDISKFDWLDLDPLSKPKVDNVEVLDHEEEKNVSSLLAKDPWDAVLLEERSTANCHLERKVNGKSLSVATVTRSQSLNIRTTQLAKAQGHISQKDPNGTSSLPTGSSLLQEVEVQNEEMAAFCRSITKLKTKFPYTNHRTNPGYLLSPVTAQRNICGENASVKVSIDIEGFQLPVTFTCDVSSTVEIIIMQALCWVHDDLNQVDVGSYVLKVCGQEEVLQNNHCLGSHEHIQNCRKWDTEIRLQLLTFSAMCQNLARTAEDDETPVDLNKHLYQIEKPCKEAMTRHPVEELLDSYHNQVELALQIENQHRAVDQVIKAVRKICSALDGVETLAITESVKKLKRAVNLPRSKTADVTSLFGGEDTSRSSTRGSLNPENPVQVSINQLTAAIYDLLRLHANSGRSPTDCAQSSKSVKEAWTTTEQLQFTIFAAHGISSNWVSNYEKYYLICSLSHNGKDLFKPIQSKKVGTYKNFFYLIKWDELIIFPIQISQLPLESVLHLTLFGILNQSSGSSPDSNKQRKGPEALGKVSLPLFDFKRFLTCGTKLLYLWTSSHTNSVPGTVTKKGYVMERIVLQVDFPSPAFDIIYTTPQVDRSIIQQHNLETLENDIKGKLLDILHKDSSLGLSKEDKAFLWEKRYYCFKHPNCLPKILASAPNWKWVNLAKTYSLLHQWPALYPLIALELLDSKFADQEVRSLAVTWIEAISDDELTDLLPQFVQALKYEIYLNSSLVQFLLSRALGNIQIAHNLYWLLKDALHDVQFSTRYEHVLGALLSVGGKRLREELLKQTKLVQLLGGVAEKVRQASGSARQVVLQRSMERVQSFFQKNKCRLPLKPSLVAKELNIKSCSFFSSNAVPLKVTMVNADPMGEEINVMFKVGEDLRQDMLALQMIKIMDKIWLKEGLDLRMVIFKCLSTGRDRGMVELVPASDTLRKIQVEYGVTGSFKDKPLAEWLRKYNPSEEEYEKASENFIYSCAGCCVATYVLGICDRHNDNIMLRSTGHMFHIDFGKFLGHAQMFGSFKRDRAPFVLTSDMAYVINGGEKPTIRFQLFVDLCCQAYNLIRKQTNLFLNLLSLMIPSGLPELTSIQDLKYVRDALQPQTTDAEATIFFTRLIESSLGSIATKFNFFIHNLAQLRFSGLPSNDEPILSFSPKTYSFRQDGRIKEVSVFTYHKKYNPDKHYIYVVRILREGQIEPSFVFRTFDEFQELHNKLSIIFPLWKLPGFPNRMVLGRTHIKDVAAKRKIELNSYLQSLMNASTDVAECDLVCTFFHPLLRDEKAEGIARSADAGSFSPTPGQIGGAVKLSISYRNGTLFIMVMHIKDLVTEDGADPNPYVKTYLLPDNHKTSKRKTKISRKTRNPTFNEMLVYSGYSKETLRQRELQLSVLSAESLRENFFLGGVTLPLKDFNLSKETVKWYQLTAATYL
UniProt Q8TBF5: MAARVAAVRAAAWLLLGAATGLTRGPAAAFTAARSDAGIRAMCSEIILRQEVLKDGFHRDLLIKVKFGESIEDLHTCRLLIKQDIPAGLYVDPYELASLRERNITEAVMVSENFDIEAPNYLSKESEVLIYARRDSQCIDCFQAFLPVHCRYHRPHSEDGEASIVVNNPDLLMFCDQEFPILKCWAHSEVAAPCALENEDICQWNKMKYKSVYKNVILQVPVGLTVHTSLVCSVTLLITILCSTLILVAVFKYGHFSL
UniProt O60346: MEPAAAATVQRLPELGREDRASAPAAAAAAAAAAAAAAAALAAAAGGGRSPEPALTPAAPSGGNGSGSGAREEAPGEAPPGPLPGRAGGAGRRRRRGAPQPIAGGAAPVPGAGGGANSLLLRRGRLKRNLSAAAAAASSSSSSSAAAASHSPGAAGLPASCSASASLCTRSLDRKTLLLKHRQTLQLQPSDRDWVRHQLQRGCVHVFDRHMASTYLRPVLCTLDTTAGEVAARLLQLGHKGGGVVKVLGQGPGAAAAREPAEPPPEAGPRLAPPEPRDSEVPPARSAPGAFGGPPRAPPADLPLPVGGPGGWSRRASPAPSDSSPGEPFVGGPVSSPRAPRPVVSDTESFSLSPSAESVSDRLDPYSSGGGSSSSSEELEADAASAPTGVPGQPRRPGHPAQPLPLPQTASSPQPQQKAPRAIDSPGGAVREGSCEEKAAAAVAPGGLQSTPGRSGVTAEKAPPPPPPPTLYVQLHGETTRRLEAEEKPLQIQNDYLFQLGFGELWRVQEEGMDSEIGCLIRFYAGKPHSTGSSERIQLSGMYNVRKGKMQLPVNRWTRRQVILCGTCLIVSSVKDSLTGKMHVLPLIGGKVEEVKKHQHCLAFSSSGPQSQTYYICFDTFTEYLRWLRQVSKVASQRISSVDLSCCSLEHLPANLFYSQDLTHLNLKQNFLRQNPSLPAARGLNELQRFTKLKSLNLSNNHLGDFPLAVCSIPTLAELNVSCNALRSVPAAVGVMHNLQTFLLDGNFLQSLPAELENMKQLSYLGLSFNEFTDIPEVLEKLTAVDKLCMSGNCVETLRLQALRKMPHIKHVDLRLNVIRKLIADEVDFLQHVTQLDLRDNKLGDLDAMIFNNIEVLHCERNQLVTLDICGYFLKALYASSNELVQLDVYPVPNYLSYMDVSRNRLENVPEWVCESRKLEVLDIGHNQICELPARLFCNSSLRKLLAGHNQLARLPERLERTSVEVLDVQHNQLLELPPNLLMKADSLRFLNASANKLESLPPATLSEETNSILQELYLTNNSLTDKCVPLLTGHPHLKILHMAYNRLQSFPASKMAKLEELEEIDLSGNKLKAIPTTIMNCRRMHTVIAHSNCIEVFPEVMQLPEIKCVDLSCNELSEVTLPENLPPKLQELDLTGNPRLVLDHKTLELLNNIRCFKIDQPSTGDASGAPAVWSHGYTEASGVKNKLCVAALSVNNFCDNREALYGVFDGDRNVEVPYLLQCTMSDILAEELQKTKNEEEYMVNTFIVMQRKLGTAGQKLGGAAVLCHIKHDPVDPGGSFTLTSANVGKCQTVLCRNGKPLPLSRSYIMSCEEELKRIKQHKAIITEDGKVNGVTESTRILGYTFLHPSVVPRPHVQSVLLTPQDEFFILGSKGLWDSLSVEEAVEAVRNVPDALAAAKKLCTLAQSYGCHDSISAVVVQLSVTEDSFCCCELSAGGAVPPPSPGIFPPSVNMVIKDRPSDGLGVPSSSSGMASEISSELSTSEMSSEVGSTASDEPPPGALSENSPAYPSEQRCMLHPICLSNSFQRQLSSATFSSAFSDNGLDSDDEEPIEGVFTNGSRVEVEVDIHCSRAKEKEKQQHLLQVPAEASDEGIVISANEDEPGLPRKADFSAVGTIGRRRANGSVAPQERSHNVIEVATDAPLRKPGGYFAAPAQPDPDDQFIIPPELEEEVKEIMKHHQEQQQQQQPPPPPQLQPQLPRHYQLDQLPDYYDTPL
UniProt P16118: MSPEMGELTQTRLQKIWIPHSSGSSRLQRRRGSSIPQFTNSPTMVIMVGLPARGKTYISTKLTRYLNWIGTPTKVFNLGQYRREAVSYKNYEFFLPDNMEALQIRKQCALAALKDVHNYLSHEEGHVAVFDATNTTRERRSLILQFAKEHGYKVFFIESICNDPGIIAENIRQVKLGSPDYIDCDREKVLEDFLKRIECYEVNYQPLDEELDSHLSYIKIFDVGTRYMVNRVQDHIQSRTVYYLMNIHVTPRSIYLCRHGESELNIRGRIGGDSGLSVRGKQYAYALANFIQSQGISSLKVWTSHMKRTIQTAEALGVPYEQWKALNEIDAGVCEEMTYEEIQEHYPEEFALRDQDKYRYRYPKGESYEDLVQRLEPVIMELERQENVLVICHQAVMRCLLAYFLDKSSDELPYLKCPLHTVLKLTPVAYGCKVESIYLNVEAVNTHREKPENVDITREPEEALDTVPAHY
UniProt P36871: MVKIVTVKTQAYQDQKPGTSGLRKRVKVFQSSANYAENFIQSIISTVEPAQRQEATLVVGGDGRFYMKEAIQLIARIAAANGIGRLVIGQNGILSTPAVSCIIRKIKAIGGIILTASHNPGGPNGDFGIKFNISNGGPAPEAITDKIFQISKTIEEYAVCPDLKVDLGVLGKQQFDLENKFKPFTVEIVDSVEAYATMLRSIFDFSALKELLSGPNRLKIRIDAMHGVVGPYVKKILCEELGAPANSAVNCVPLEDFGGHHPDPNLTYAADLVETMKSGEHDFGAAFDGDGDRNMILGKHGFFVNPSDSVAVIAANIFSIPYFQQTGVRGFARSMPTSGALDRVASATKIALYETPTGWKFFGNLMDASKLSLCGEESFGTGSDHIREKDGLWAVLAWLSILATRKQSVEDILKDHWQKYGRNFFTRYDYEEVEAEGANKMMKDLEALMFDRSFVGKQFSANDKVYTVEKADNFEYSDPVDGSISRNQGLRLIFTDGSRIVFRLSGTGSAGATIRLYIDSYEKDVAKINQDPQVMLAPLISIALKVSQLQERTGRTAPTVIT

Assays:
Assay in all cases: log2 fold change, soluble protein after heating vs DMSO (PISA); higher = thermal stabilisation; K562 cells, 10 uM, 30 min; active = over 0.2 and 3.5 SD of the protein, either way, in both replicates (recomputed)
[1] = compound: CC1=C(C=C(C=C1)NC(=O)C2=CC(=CC=C2)C(C)(C)C#N)NC3=CC4=C(C=C3)N=CN(C4=O)C
How it was run: (§1)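 K562 cells at 2×10^6 cells/mL were treated with 10 μM compound for 30 min. Aliquots were heated for 3 min across 48°C-58°C, pooled, and extracted in PBS with 0.5% NP-40 at 4°C; soluble protein was the supernatant after 21,000xg for 90 min. Soluble protein was quantified by TMTpro 16plex LC-MS/MS with channel sums equalised, and reported as log2 fold change in thermal stability against DMSO controls, with values from duplicates.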

[2] = compound: CC1=C(C=C(C=C1)NC(=O)C2=CC(=CC=C2)N(C)C)NC(=O)C3=CC=C(C=C3)O
How it was run: as §1

[3] = compound: CC1=NC(=CC=C1)C2=C(N=C(N2)C(C)(C)C)C3=CC4=NC=CN=C4C=C3
How it was run: as §1

[4] = compound: CCCS(=O)(=O)Nc1ccc(F)c(C(=O)c2c[nH]c3ncc(-c4ccc(Cl)cc4)cc23)c1F [vemurafenib]
How it was run: as §1

[5] = compound: CCCc1cc(C)[nH]c(=O)c1CNC(=O)c1cc(-c2ccnc(N3CCN(C)CC3)c2)cc2c1cnn2C(C)C
How it was run: as §1

[6] = compound: CCN(CC)Cc1ccc2cc(COC(=O)Nc3ccc(C(=O)NO)cc3)ccc2c1 [givinostat]
How it was run: as §1

[7] = compound: CCN(CCCOc1ccc2c(Nc3cc(CC(=O)Nc4cccc(F)c4)[nH]n3)ncnc2c1)CCOP(=O)(O)O [barasertib]
How it was run: as §1

[8] = compound: CCCCN(Cc1ccc(C(=O)NO)cc1)C(=O)Nc1ccccc1 [Nexturastat A]
How it was run: as §1

[9] = compound: CC1=CC=C(C=C1)SC2=C3C=C(SC3=CN=C2)C(=O)N
How it was run: as §1

[10] = compound: CCCS(=O)(=O)Nc1ccc(F)c(C(=O)c2c[nH]c3ncc(Cl)cc23)c1F
How it was run: as §1

Measured: log2 fold change

PI4K2B (UniProt Q8TCG2)
inactive: [1] -0.082 | [2] -0.002 | [3] -0.013 | [4] 0.059 | [5] 0.144 | [6] 0.019 | [7] 0.146

PIGQ (UniProt Q9BRB3)
inactive: [1] -0.18 | [2] 0.131 | [3] -0.058 | [8] 0.191 | [4] -0.019 | [5] 0.241 | [6] -0.043 | [7] -0.048

PLA2G12A (UniProt Q9BZM1)
inactive: [1] -0.237 | [2] 0.116 | [9] 0.143 | [8] 0.159 | [10] -0.093 | [5] -0.235 | [6] 0.016 | [7] -0.146

PEX5 isoform 4 (UniProt P50542)
inactive: [1] 0.089 | [2] -0.018 | [8] 0.145 | [4] -0.066 | [6] 0.127

PIGBOS1, A0A0B4J2F0
inactive: [1] 0.02 | [2] -0.051 | [9] -0.026 | [8] -0.003 | [4] -0.023 | [10] -0.064 | [5] -0.055 | [6] 0.009 | [7] -0.094

PIGN (UniProt O95427)
inactive: [1] 0.09 | [2] -0.043 | [9] -0.004 | [3] -0.117 | [8] -0.01 | [10] 0.097 | [5] -0.155 | [7] -0.043

PFN3 (UniProt P60673)
inactive: [1] -0.275 | [9] -0.586 | [8] -0.369 | [4] 0.4 | [10] -0.102 | [5] 0.206

PGK2 (UniProt P07205)
inactive: [1] 0.019 | [2] 0.058 | [9] -0.075 | [3] 0.05 | [8] 0.039 | [4] -0.084 | [10] -0.051 | [5] -0.006 | [7] -0.046

PHYKPL (UniProt Q8IUZ5)
inactive: [1] 0.048 | [9] -0.027 | [8] 0.349 | [10] -0.028 | [5] 0.177 | [6] -0.055

PHF14 (UniProt O94880)
inactive: [1] -0.052 | [2] -0.01 | [4] 0.02 | [5] 0.098

PIK3C2A (UniProt O00443)
inactive: [1] -0.003 | [2] 0.085 | [3] 0.097 | [8] 0.616 | [5] -0.296 | [6] -0.078

PKMYT1 (UniProt Q99640)
inactive: [1] 0.044 | [2] 0.049 | [8] 0.254 | [6] -0.055

PLA2G4B isoform 6 (UniProt P0C869)
inactive: [1] 0.136 | [2] 0.019 | [9] -0.021 | [3] -0.021 | [4] 0.027 | [10] 0.086 | [5] -0.092 | [7] 0.039

PLCL1 (UniProt Q15111)
inactive: [1] 0.056 | [2] -0.061 | [3] 0.03 | [8] 0.253 | [4] 0.068 | [5] 0.159 | [6] 0.21 | [7] 0.205

PLCG2 (UniProt P16885)
inactive: [6] 0.014 | [7] -0.004

PKIB isoform 2 (UniProt Q9C010)
inactive: [9] 0.217 | [10] 0.079 | [5] 0.044 | [6] 0.052

PIGX isoform 2 (UniProt Q8TBF5)
inactive: [1] 0 | [8] 0.251 | [4] -0.104 | [5] 0.029 | [6] 0.017 | [7] -0.059

PHLPP1 (UniProt O60346)
inactive: [8] 0.113

PIBF1 (UniProt Q8WXW3)
inactive: [5] 0.129 | [6] 0.321 | [7] -0.26

PKIG (UniProt Q9Y2B9)
inactive: [5] 0.171

PLEKHA5 isoform 6 (UniProt Q9HAU0)
inactive: [8] 0.034 | [4] 0.256 | [5] 0.224 | [6] 0.129

PKHD1 (UniProt P08F94)
inactive: [4] 0.032

PHLDB1 isoform 2 (UniProt Q86UU1)
inactive: [2] 0.01 | [9] 0.047 | [3] 0.047 | [8] 0.045 | [4] 0.031 | [10] 0.016 | [5] 0.14 | [6] -0.012 | [7] 0.117

PLCXD1 (UniProt Q9NUJ7)
inactive: [2] 0.05 | [7] -0.003

PFKM (UniProt F8VTQ3)
inactive: [9] -0.406 | [3] 0.027 | [10] -0.45 | [7] -0.051

PI4KB isoform 2 (UniProt Q9UBF8)
inactive: [6] -0.093

PLEKHB2 isoform 2 (UniProt Q96CS7)
inactive: [9] -0.014 | [10] -0.041 | [7] -0.087

PIGO (UniProt Q8TEQ8)
inactive: [3] 0 | [8] 0.068 | [4] 0.009 | [5] -0.162 | [6] -0.029 | [7] -0.006

PKP4 (UniProt Q99569)
inactive: [2] -0.044 | [8] 0.191 | [6] -0.199

PIAS1 isoform 2 (UniProt O75925)
inactive: [2] -0.078 | [9] -0.025 | [3] 0.138 | [10] 0.005 | [7] 0.154

PFKFB1 (UniProt P16118)
inactive: [1] 0.09 | [9] 0.173 | [8] -0.068 | [10] -0.075 | [5] 0.01 | [7] 0.05

PIAS4 (UniProt Q8N2W9)
inactive: [2] -0.137 | [9] -0.101 | [3] 0.222 | [8] 0.353 | [10] 0.07 | [5] 1.31

PEX26 (UniProt Q7Z412)
inactive: [2] 0.035 | [9] 0.068 | [3] -0.042 | [8] 0 | [4] -0.164 | [10] -0.011 | [5] -0.087 | [6] 0.013

PLEK (UniProt P08567)
inactive: [2] -0.03 | [9] 0.273 | [3] -0.047 | [4] 0.125 | [10] -0.057 | [6] -0.051

Copied from above (6 entries):
PI4KB isoform 2 (UniProt Q9UBF8)
inactive: [6] -0.093

PLEKHB2 isoform 2 (UniProt Q96CS7)
inactive: [9] -0.014 | [10] -0.041 | [7] -0.087

PIGO (UniProt Q8TEQ8)
inactive: [3] 0 | [8] 0.068 | [4] 0.009 | [5] -0.162 | [6] -0.029 | [7] -0.006

PKP4 (UniProt Q99569)
inactive: [2] -0.044 | [8] 0.191 | [6] -0.199

PIAS1 isoform 2 (UniProt O75925)
inactive: [2] -0.078 | [9] -0.025 | [3] 0.138 | [10] 0.005 | [7] 0.154

PFKFB1 (UniProt P16118)
inactive: [1] 0.09 | [9] 0.173 | [8] -0.068 | [10] -0.075 | [5] 0.01 | [7] 0.05

Carrying on:

PKNOX1 (UniProt P55347)
inactive: [6] 0.259

PGM1 isoform 2 (UniProt P36871)
inactive: [6] 0.088

PHRF1 (UniProt Q9P1Y6)
inactive: [2] -0.052 | [9] -0.034 | [10] -0.058 | [5] 0.146 | [6] 0.034

PIGL (UniProt Q9Y2B2)
inactive: [2] -0.05 | [3] 0.062 | [8] -0.192 | [4] 0.03 | [5] 0.129 | [6] 0.029 | [7] 0.008
